# Measurements taken from the supplement of paper PMC11438910.
# The other results are listed elsewhere or left out. Most of these values are background signal.
# B1: 3S41.3 (protein)
# chain 1: EVQLVESGGGLVQPGGSLRLSCATSGFTFSNYWMYWFRQAPGKGLEWVSTISGSSSNTYYPDSVKGRFTISRDNAKNTLYLQINSLRAEDTAVYYCARRHDHSSGWAFDYWGQGVLVTVSS
# chain 2: EIVMTQSPATLSLSPGERATLSCRASQSVGSNLAWYQQKPGQAPKLLIYDASSRATGIPDRFSGSGSGTDFTLTVSSLEPEDVGVYYCQQYNNWKTFGQGTKVEIK
# What was measured:
# Experiment in all cases: fluorescence intensity of antibody binding to polysaccharide-coupled beads; higher = stronger binding
# [1] = target: pneumococcal polysaccharide Pn44
# [2] = target: pneumococcal polysaccharide Pn45
# [3] = target: pneumococcal polysaccharide Pn46
# [4] = target: pneumococcal polysaccharide Pn47A
# [5] = target: pneumococcal polysaccharide Pn47F
# [6] = target: pneumococcal polysaccharide Pn48
# [7] = target: pneumococcal polysaccharide Pn5
# [8] = target: pneumococcal polysaccharide Pn6A
# [9] = target: pneumococcal polysaccharide Pn6B
# [10] = target: pneumococcal polysaccharide Pn6C
# [11] = antibody concentration 0.1 ng/mL
# [12] = antibody concentration 0.534724 ng/mL
# [13] = antibody concentration 2.8593 ng/mL
# [14] = antibody concentration 15.2894 ng/mL
# [15] = antibody concentration 81.7561 ng/mL
# [16] = antibody concentration 437.17 ng/mL
# [17] = antibody concentration 2337.65 ng/mL
# [18] = antibody concentration 12500 ng/mL
binder,measurement,setting,value
B1,fluorescence intensity,[1]; [11],24.5 MFI
same,fluorescence intensity,[1]; [12],23.5 MFI
same,fluorescence intensity,[1]; [13],24.5 MFI
same,fluorescence intensity,[1]; [14],22.5 MFI
same,fluorescence intensity,[1]; [15],25.5 MFI
same,fluorescence intensity,[1]; [16],27.5 MFI
same,fluorescence intensity,[1]; [17],40.2 MFI
same,fluorescence intensity,[1]; [18],74.2 MFI
same,fluorescence intensity,[2]; [11],10.2 MFI
same,fluorescence intensity,[2]; [12],10.5 MFI
same,fluorescence intensity,[2]; [13],11 MFI
same,fluorescence intensity,[2]; [14],11.5 MFI
same,fluorescence intensity,[2]; [15],11 MFI
same,fluorescence intensity,[2]; [16],13 MFI
same,fluorescence intensity,[2]; [17],17 MFI
same,fluorescence intensity,[2]; [18],31.2 MFI
same,fluorescence intensity,[3]; [11],22 MFI
same,fluorescence intensity,[3]; [12],23 MFI
same,fluorescence intensity,[3]; [13],23 MFI
same,fluorescence intensity,[3]; [14],22.5 MFI
same,fluorescence intensity,[3]; [15],26 MFI
same,fluorescence intensity,[3]; [16],50.5 MFI
same,fluorescence intensity,[3]; [17],287 MFI
same,fluorescence intensity,[3]; [18],744 MFI
same,fluorescence intensity,[4]; [11],16.2 MFI
same,fluorescence intensity,[4]; [12],15 MFI
same,fluorescence intensity,[4]; [13],15 MFI
same,fluorescence intensity,[4]; [14],15 MFI
same,fluorescence intensity,[4]; [15],15.5 MFI
same,fluorescence intensity,[4]; [16],22 MFI
same,fluorescence intensity,[4]; [17],67.2 MFI
same,fluorescence intensity,[4]; [18],138 MFI
same,fluorescence intensity,[5]; [11],11 MFI
same,fluorescence intensity,[5]; [12],11.2 MFI
same,fluorescence intensity,[5]; [13],10.5 MFI
same,fluorescence intensity,[5]; [14],12 MFI
same,fluorescence intensity,[5]; [15],14.5 MFI
same,fluorescence intensity,[5]; [16],39.5 MFI
same,fluorescence intensity,[5]; [17],338 MFI
same,fluorescence intensity,[5]; [18],704 MFI
same,fluorescence intensity,[6]; [11],21 MFI
same,fluorescence intensity,[6]; [12],21.5 MFI
same,fluorescence intensity,[6]; [13],20.2 MFI
same,fluorescence intensity,[6]; [14],21 MFI
same,fluorescence intensity,[6]; [15],26 MFI
same,fluorescence intensity,[6]; [16],41.2 MFI
same,fluorescence intensity,[6]; [17],59.2 MFI
same,fluorescence intensity,[6]; [18],101 MFI
same,fluorescence intensity,[7]; [11],8 MFI
same,fluorescence intensity,[7]; [12],9 MFI
same,fluorescence intensity,[7]; [13],8.5 MFI
same,fluorescence intensity,[7]; [14],9 MFI
same,fluorescence intensity,[7]; [15],10.8 MFI
same,fluorescence intensity,[7]; [16],42.5 MFI
same,fluorescence intensity,[7]; [17],372 MFI
same,fluorescence intensity,[7]; [18],837 MFI
same,fluorescence intensity,[8]; [11],22.5 MFI
same,fluorescence intensity,[8]; [12],19.8 MFI
same,fluorescence intensity,[8]; [13],20.8 MFI
same,fluorescence intensity,[8]; [14],21 MFI
same,fluorescence intensity,[8]; [15],23 MFI
same,fluorescence intensity,[8]; [16],28 MFI
same,fluorescence intensity,[8]; [17],37.5 MFI
same,fluorescence intensity,[8]; [18],68 MFI
same,fluorescence intensity,[9]; [11],17.2 MFI
same,fluorescence intensity,[9]; [12],19.2 MFI
same,fluorescence intensity,[9]; [13],17.5 MFI
same,fluorescence intensity,[9]; [14],17.5 MFI
same,fluorescence intensity,[9]; [15],22.8 MFI
same,fluorescence intensity,[9]; [16],24.5 MFI
same,fluorescence intensity,[9]; [17],35.8 MFI
same,fluorescence intensity,[9]; [18],66.5 MFI
same,fluorescence intensity,[10]; [11],15 MFI
same,fluorescence intensity,[10]; [12],17.5 MFI
same,fluorescence intensity,[10]; [13],16 MFI
same,fluorescence intensity,[10]; [14],17.5 MFI
same,fluorescence intensity,[10]; [15],33 MFI
same,fluorescence intensity,[10]; [16],53.8 MFI
same,fluorescence intensity,[10]; [17],88.2 MFI
same,fluorescence intensity,[10]; [18],166 MFI

# A run of entries from further up, as a working copy:
binder,measurement,setting,value
B1,fluorescence intensity,[1]; [18],74.2 MFI
same,fluorescence intensity,[2]; [11],10.2 MFI
same,fluorescence intensity,[2]; [12],10.5 MFI
same,fluorescence intensity,[2]; [13],11 MFI
same,fluorescence intensity,[2]; [14],11.5 MFI
same,fluorescence intensity,[2]; [15],11 MFI
same,fluorescence intensity,[2]; [16],13 MFI
same,fluorescence intensity,[2]; [17],17 MFI
same,fluorescence intensity,[2]; [18],31.2 MFI
same,fluorescence intensity,[3]; [11],22 MFI
same,fluorescence intensity,[3]; [12],23 MFI
same,fluorescence intensity,[3]; [13],23 MFI
same,fluorescence intensity,[3]; [14],22.5 MFI
same,fluorescence intensity,[3]; [15],26 MFI
same,fluorescence intensity,[3]; [16],50.5 MFI
